Reference: the supplement of paper PMC10626197
± gives the standard deviation of the averaged measurements. Some well-known active drugs show little effect in this data set, so a weak value is uncertain.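 MCF7, a breast cancer cell line, was exposed to pairs of drugs across a grid of doses. Every plate had solvent-only (DMSO) wells as the untreated reference and a doxorubicin series as the total-kill control. No hit threshold is applied to these viability readings.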

System: MCF7
Experiment: cell viability relative to DMSO control (raw); higher = more viable cells
Settings: exposure time 72 h
Protocol: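 MCF7 cells, 1000 cells/well in 384-well plates, treated with 6x6 dose matrices of drug pairs (1:3 serial dilutions, DMSO as lowest dose) for 72 h at 37 °C. Viability read by CellTiter-Glo luminescence, 3 biological replicates. Normalised viability sets 0% at the highest doxorubicin dose and 100% at the 0,0 µM control per combination.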

COc1cc2ncnc(Nc3ccc(F)c(Cl)c3)c2cc1OCCCN1CCOCC1 [Gefitinib] + NS(=O)(=O)c1cc2c(cc1Cl)NCNS2(=O)=O [Hydrochlorothiazide]
cell viability [%]
Settings | drug 2 concentration 0 µM | drug 2 concentration 0.0246914 µM | drug 2 concentration 0.0740741 µM | drug 2 concentration 0.222222 µM | drug 2 concentration 0.666667 µM | drug 2 concentration 2 µM
drug 1 concentration 0.123457 µM | 101 ± 5.2 | 109 ± 6.3 | 108 ± 3.7 | 104 ± 6.8 | 100 ± 4 | 108 ± 8.8
drug 1 concentration 0.37037 µM | 104 ± 8.1 | 115 ± 2.7 | 113 ± 2.2 | 114 ± 1.4 | 111 ± 5.6 | 110 ± 5.5
drug 1 concentration 1.11111 µM | 106 ± 4.4 | 106.4 ± 0.37 | 104 ± 3 | 109 ± 5.1 | 111 ± 5.7 | 107 ± 2
drug 1 concentration 3.33333 µM | 98.5 ± 7.4 | 95.2 ± 9.9 | 102 ± 8.4 | 112 ± 7.1 | 110 ± 3.6 | 110 ± 4.2
drug 1 concentration 10 µM | 68.4 ± 3.7 | 67.3 ± 5.9 | 70.8 ± 12 | 64.2 ± 7.3 | 72.7 ± 5.7 | 72.5 ± 7.6

NC(=O)NO [Hydroxyurea] + Cc1[nH]c(/C=C2\C(=O)Nc3ccccc32)c(C)c1CCC(=O)O [Orantinib]
cell viability [%]
Settings | drug 2 concentration 0 µM | drug 2 concentration 0.320988 µM | drug 2 concentration 0.962963 µM | drug 2 concentration 2.88889 µM | drug 2 concentration 8.66667 µM | drug 2 concentration 26 µM
drug 1 concentration 0.555556 µM | 82.6 ± 7.3 | 89.4 ± 12 | 93.8 ± 15 | 90.1 ± 11 | 76.5 ± 7.6 | 72.5 ± 0.78
drug 1 concentration 1.66667 µM | 82.8 ± 6.8 | 96.1 ± 11 | 105 ± 33 | 96.3 ± 19 | 90.3 ± 12 | 75.2 ± 8.6
drug 1 concentration 5 µM | 91 ± 8.8 | 85.6 ± 4.4 | 96.2 ± 12 | 91.6 ± 13 | 83.7 ± 5.1 | 71.6 ± 15
drug 1 concentration 15 µM | 99.7 ± 23 | 96.7 ± 13 | 88.6 ± 15 | 96 ± 9.4 | 90.3 ± 13 | 85.8 ± 15
drug 1 concentration 45 µM | 98.4 ± 6.5 | 112 ± 25 | 109 ± 7.9 | 102 ± 11 | 102 ± 16 | 82.5 ± 14

Cc1ccc(NC(=O)c2ccc(CN3CCN(C)CC3)cc2)cc1Nc1nccc(-c2cccnc2)n1 [Imatinib] + C=C1/C(=C\C=C2/CCC[C@]3(C)[C@@H]([C@H](C)CCCC(C)C)CC[C@@H]23)C[C@@H](O)C[C@@H]1O [Alfacalcidol]
cell viability [%]
Settings | drug 2 concentration 0 µM | drug 2 concentration 0.617284 µM | drug 2 concentration 1.85185 µM | drug 2 concentration 5.55556 µM | drug 2 concentration 16.6667 µM | drug 2 concentration 50 µM
drug 1 concentration 0.123457 µM | 83.8 ± 6.3 | 83.5 ± 2.7 | 79.9 ± 1.9 | 80.6 ± 3.9 | 69.1 ± 6.4 | 0.97 ± 0.095
drug 1 concentration 0.37037 µM | 77.9 ± 3.2 | 78.2 ± 1.7 | 80.2 ± 3.1 | 74.8 ± 5.5 | 49.3 ± 6.2 | 0.706 ± 0.31
drug 1 concentration 1.11111 µM | 90.3 ± 4.1 | 85.2 ± 4.4 | 79 ± 1.4 | 78.9 ± 3.1 | 70.1 ± 2.1 | 0.746 ± 0.23
drug 1 concentration 3.33333 µM | 77.1 ± 0.94 | 71.5 ± 3.5 | 79.6 ± 13 | 74 ± 8.3 | 42.1 ± 3.3 | 0.618 ± 0.22
drug 1 concentration 10 µM | 78.2 ± 1.8 | 76.3 ± 2.4 | 67.3 ± 1.3 | 64.8 ± 3 | 47 ± 2 | 0.63 ± 0.2
